These results are taken from US20110300148A1.

Test [1] deals with Recombinant IL4Rα (Homo sapiens (Human)). The test is described as follows: SPR (Biacore); by the legend, Ph3 on the chip and IL4rα in solution; KD calculated but not given.
The target is the same in test [2]. The test is described as follows: SPR (Biacore); by the legend, Ph2 on the chip and IL4rα in solution; KD calculated but not given.

These are yes or no findings as the source states them, for the method shown. Binding can be weak; no strength is given.

Regarding AQFHRHKQLIRFLKRA [Ph3 (SEQ ID NO:1)], in test [1], the binding entry is “binds”.
Regarding ARFLKRLDRNLWGG [Ph2 (SEQ ID NO:3)], the binding entry in test [2] is “binds”.
